The whole screen tested about 400,000 compounds, of which about 3,700 (0.93%) were called active. The inconclusive results got no clear call from the source; some entries with a clear call stand among them for comparison. Calls follow the shape of the dose curve; as a rule, active = well fitted inhibition curve with a large enough effect; inconclusive = small, poorly fitted or top-dose-only effect, or another doubt; inactive = no such curve, though single readings can be large or run the other way. A potency beside an inconclusive call is a rough fit, not a confirmed value.
molecular target: Vitamin D3 receptor (Homo sapiens) (UniProt P11473); experiment: Inhibitors of the vitamin D receptor (VDR): qHTS; settings: VDR-SRC2-3 peptide fluorescence polarization, 2 h; max response, negative = inhibition: hits give low values
Method in brief: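 FP read-out; VDR + SRC2-3 coactivator peptide; 23 nl compound by pintool; 2 h RT incubation; reagents held at 4 deg C, protected from light.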
% is scaled to controls: 0 for no effect and ±100 for the full control effect; potency is read from the fitted curve at half-maximal effect.

Sequences of proteins named here, by UniProt entry; tags and fusion partners are left off. A change or cut given only in a name is not applied to a line headed by its entry.
UniProt P11473: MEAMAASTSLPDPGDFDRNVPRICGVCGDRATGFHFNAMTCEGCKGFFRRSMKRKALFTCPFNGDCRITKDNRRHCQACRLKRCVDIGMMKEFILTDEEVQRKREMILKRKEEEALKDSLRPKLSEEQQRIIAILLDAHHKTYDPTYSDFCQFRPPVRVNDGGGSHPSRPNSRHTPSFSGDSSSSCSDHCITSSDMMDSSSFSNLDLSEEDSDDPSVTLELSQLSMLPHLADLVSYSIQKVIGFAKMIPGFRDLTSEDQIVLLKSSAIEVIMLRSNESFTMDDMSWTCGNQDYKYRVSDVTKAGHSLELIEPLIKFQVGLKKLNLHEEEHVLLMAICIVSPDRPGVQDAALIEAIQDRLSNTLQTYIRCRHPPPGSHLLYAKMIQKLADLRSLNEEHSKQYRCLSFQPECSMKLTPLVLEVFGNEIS

Compound | Potency | max response, negative = inhibition
O=C(COC(=O)c1ccc(Cl)c(S(=O)(=O)N2CCCC2)c1)NC1CCCCC1 | inconclusive: 39.8 µM [inhibitor, partial curve, poor fit] | 
CCOC(=O)c1ccc(NC(=O)CC2S/C(=N/N=C/c3c[nH]c4ccccc34)NC2=O)cc1 (centres undefined) | inconclusive: 100 µM [inhibitor, partial curve, poor fit] | 
CCCCCc1ccc(C)cc1O |  | inactive: 7.41%
O=C(/C=C/Nc1ccc(F)cc1F)c1cccs1 |  | inactive: -7.24%
CCOC(=O)N1CCC(NC(=O)c2cc(C(=O)Nc3ccc(S(=O)(=O)N4CCOCC4)cc3)ccc2CO)CC1 |  | inactive: -8.47%
Brc1ccc(CSc2ncn[nH]2)cc1 |  | inactive: 4.51%
Cc1ccc2oc(=O)c3cnn(CC(=O)NCc4ccccc4Cl)c3c2c1 | inconclusive: 89.1 µM [inhibitor, single point] | 
CC1(C)CC(CC(=O)NNc2nc(-c3ccccc3)cs2)C(=O)O1 (centres undefined) | inconclusive: 56.2 µM [inhibitor, partial curve, poor fit] | 
CCN(CC)CCCNC(=O)c1ccc(OCC(=O)Nc2ccccc2C(F)(F)F)c(OC)c1 |  | inactive: 1.36%
Cc1cccc(C2(c3cccc(C)c3)CC2C(=O)NCC2CCCO2)c1 (centres undefined) | inconclusive: 70.8 µM [inhibitor, partial curve] | 
Cn1nc(C(=O)N2CCN(C(c3ccccc3)c3ccccc3)CC2)c2ccccc2c1=O |  | inactive: 10.5%
CCOC(=O)c1ccc(N2C(=O)CC(C)(CC)CC2=O)cc1 | inconclusive: 79.4 µM [inhibitor, partial curve] | 
Cc1ccc(S(=O)(=O)N2CCCCCC2)cc1C(=O)Nc1cccnc1 |  | inactive: -4.41%
CN1CCC2(CC1)N=C(c1ccc(F)cc1)C(=S)N2C(=O)c1ccccc1 | active: 44.7 µM | 
O=C(Nc1ccncc1)c1cc2ccccc2cc1O | inconclusive: 79.4 µM [inhibitor, single point] | 
O=C(Nc1ccc(C(=O)O)cc1)Nc1ccc(F)cc1F |  | inactive: -13.1%
COc1ccc(CNCCS(=O)(=O)NN2CCOCC2)cc1 | inconclusive: 25.1 µM [inhibitor, full curve] | 
COc1ccc(/C=N/N2CCN(c3ccccc3)CC2)cc1Br |  | inactive: 6.86%
Cc1cc([N+](=O)[O-])nn1CC(=O)Nc1ccc(Cl)cn1 |  | inactive: 3.34%
CCCCOC(=O)c1ccc(NS(=O)(=O)c2c(C)nc3scc(C)n3c2=O)cc1 |  | inactive: 1.95%
Cc1ccc(NC(=O)c2c(N3CCCC3=O)c3cc(C)ccc3n2C)c(C)c1 |  | inactive: 5.62%
N#Cc1c(NC(=S)NC(=O)c2ccccc2)sc2c1CCCC2 | inconclusive: 100 µM [inhibitor, single point] | 
Cn1c(=O)c2[nH]c(SCCN3CCCCC3)nc2n(C)c1=S | inconclusive: 22.4 µM [inhibitor, partial curve, poor fit] | 

Compound | Potency | max response, negative = inhibition
COc1ccc(-n2nc3c(c2NC(=O)C(C)Cl)CSC3)cc1 (centres undefined) | inconclusive: 100 µM [inhibitor, single point] | 
CCn1c(C(=O)N2CCC(C(=O)N3CCN(c4cccc(C)c4C)CC3)CC2)cc2sccc21 |  | inactive: -1.46%
CCOc1cc(CNc2ccc(N(C)C)cc2)cc(Br)c1OCC(=O)NC(C)(C)C | inconclusive: 2 µM [inhibitor, full curve, poor fit] | 
Oc1ccc(Br)cc1C1C=C(c2ccc3c(c2)OCO3)NC(c2ccc(F)c(Br)c2)N1 (centres undefined) | active: 50.1 µM | 
CC(C)[C@H](NC(N)=O)C(=O)NCCc1ccc(Cl)cc1Cl | inconclusive: 4.47 µM [inhibitor, full curve, poor fit] | 
CCOc1ccc(S(=O)(=O)N(CC)CC)cc1NS(=O)(=O)c1ccc(F)c(F)c1F | active: 70.8 µM | 
CN(CC(=O)NC(=O)NCc1ccccc1)Cc1ccc(Cl)c(Cl)c1 |  | inactive: -6.25%
Cc1ccc(NS(=O)(=O)c2cc([N+](=O)[O-])ccc2NNC(=S)Nc2cc(C)ccc2C)c(C)c1 | inconclusive: 79.4 µM [inhibitor, partial curve, poor fit] | 
COc1cc(OC)c(C(=S)N2CCCC2)cc1OC | inconclusive: 79.4 µM [inhibitor, single point] | 
S=C(c1ccc(Br)cc1)N1CCN(Cc2ccccc2)CC1 | inconclusive: 79.4 µM [inhibitor, single point] | 
COCCNC(=O)CN(Cc1ccc2c(c1)OCO2)C(=O)CCC(=O)Nc1nccs1 | inconclusive: 35.5 µM [inhibitor, single point] | 
CC1=NN(C(=O)c2ccccc2Cl)C(O)(c2ccccc2)C1 (centres undefined) |  | inactive: 4.89%
CCOC(=O)c1ccc(NC2=CC(c3ccc(OCC)cc3)N(c3ccc(C(=O)OCC)cc3)C2=O)cc1 (centres undefined) | active: 28.2 µM | 
CSc1nc2sc3c(c2c(=S)[nH]1)CC(C)(C)OC3 | inconclusive: 89.1 µM [inhibitor, single point] | 
COC(=O)CCSc1cc(NCCCOC(C)=O)c([N+](=O)[O-])c2nonc12 |  | inactive: -27%
CCCCCC(=O)NNC(=S)NC(=O)c1ccccc1[N+](=O)[O-] | inconclusive: 56.2 µM [inhibitor, partial curve] | 
Cc1cccc2c1c1ccc3c(c1n2C)C(=O)C=CC3=O | active: 22.4 µM | 
NS(=O)(=O)c1ccc(NS(=O)(=O)c2ccc(C3CNC(=O)C3)cc2)cc1 (centres undefined) | inconclusive: 89.1 µM [inhibitor, single point] | 
CCN1C(=NCCCOC(C)C)N[C@@H](CCc2ccccc2)[C@H](C(=O)NCCCOC(C)C)[C@H]1C |  | inactive: -20.6%
COC(=O)C1=NNC2(c3ccc(Cl)cc3)C(=O)N(c3ccc(Cl)cc3)C(=O)C12 (centres undefined) | inconclusive: 89.1 µM [inhibitor, partial curve, poor fit] | 
Cn1c(=O)n(C)c2cc(/C=N/NC(=O)c3ccc(Cl)cc3)ccc21 | inconclusive: 2.82 µM [inhibitor, full curve] | 
Cc1ccc(C2C=C(c3ccccc3)Nc3ncnn32)cc1 (centres undefined) | inconclusive: 89.1 µM [inhibitor, single point] | 
CCN(CC)S(=O)(=O)c1ccc(C)c(NC(=S)N2CCN(C/C=C/c3ccccc3)CC2)c1 | inconclusive: 100 µM [inhibitor, single point] | 

Compound | Potency | max response, negative = inhibition
COc1ccc(C2NC(=O)c3sc(=S)n(-c4ccccc4)c3N2)cc1 (centres undefined) | active: 79.4 µM | 
O=C(Nc1nnc(-c2ccncc2)o1)c1ccccc1 | inconclusive: 17.8 µM [inhibitor, partial curve, poor fit] | 
COc1ccc(OC)c(C2=NS(=O)(=O)N(C)C(C(=O)NCc3cccs3)=C2)c1 | inconclusive: 31.6 µM [inhibitor, partial curve, poor fit] | 
CC(=O)OCCCNc1cc(Sc2ccc(C)cc2)c2nonc2c1[N+](=O)[O-] | inconclusive: 89.1 µM [inhibitor, single point] | 
CCN(CC)c1ccc(NC2CC(=O)N(CCc3ccc(OC)cc3)C2=O)cc1 (centres undefined) | inconclusive: 3.16 µM [inhibitor, full curve, poor fit] | 
Cc1ccc(CNC(=O)C23CN(Cc4ccccc4)CC2C(c2ccc([N+](=O)[O-])cc2)=NO3)o1 (centres undefined) | inconclusive: 8.91 µM [inhibitor, full curve, poor fit] | 
CCOC(=O)c1sc(N)c(C(=O)Nc2ccccc2)c1C | inconclusive: 89.1 µM [inhibitor, single point] | 
CCOc1cc(C(=S)N2CCOCC2)ccc1O | active: 79.4 µM | 
CC1(C)Cc2c(sc3ncn4c(=S)[nH]nc4c23)CO1 | inconclusive: 89.1 µM [inhibitor, single point] | 
CC(C)n1c(=O)[nH][nH]c1=S | active: 50.1 µM | 
CCN(CC)S(=O)(=O)c1ccc(NC(=O)CN(c2ccccc2)S(=O)(=O)N(C)C)cc1 |  | inactive: -11%
NC(=O)c1ccsc1NC(=O)COC(=O)C1=NNC(=O)CC1 | inconclusive: 12.6 µM [inhibitor, partial curve, poor fit] | 
Cc1ccc(Nc2c(-c3c[nH]c4ccccc34)nc3ccccn23)cc1 |  | inactive: -4.16%
CC(C)Oc1ccccc1-c1nc(SCC(=O)c2ccc(F)cc2)n[nH]1 |  | inactive: -6.4%
Cc1ccccc1Oc1nc2c(C)cccn2c(=O)c1/C=C(\C#N)C(=O)NC1CCS(=O)(=O)C1 (centres undefined) | active: 39.8 µM | 
Cc1cc(Cl)ccc1N=c1ssnc1Cl | inconclusive: 17.8 µM [inhibitor, full curve, poor fit] | 
COc1ccc(OC)c(CCNC(=O)c2cc3c(s2)-c2c(C)cccc2OC3)c1 | inconclusive: 89.1 µM [inhibitor, single point] | 
Cc1ccc(NC(=O)Cn2c(=O)n(Cc3ccccc3)c(=O)c3sc4ccccc4c32)cc1 |  | inactive: 5.93%
CCN(C(=O)CSc1nccc(=O)[nH]1)C1CCCCC1 | inconclusive: 100 µM [inhibitor, partial curve, poor fit] | 
O=C(NC1CC1)c1ccc2nc(-c3ccco3)c(-c3ccco3)nc2c1 | inconclusive: 79.4 µM [inhibitor, partial curve, poor fit] | 
COc1cc2cc(CCCOC(=O)c3ccc(Br)cc3)oc(=O)c2cc1OC | inconclusive: 100 µM [inhibitor, single point] | 
CCOc1ccc(OCc2ccc(C(=O)NN=Cc3ccc[nH]3)cc2)cc1 |  | inactive: -14.4%
COCCN(Cc1ccccc1)C(=S)Nc1ccc(OC(F)F)cc1 | inconclusive: 79.4 µM [inhibitor, partial curve] | 

Some values from the results shown.
Value for COc1ccc(OC)c(C2=NS(=O)(=O)N(C)C(C(=O)NCc3cccs3)=C2)c1 under Potency: inconclusive: 31.6 µM [inhibitor, partial curve, poor fit]
Value for CCOc1ccc(OCc2ccc(C(=O)NN=Cc3ccc[nH]3)cc2)cc1 under max response, negative = inhibition: inactive: -14.4%
Value for Cc1cc(Cl)ccc1N=c1ssnc1Cl under Potency: inconclusive: 17.8 µM [inhibitor, full curve, poor fit]
Value for Cc1ccccc1Oc1nc2c(C)cccn2c(=O)c1/C=C(\C#N)C(=O)NC1CCS(=O)(=O)C1 (centres undefined) under Potency: active: 39.8 µM

Reference: PubChem BioAssay AID504847 (National Center for Advancing Translational Sciences (NCATS), 2011)
